Measured values reported in PubChem BioAssay AID1347076 (National Center for Advancing Translational Sciences (NCATS), 2019).
Out of some 400,000 compounds screened, about 13,000 (3.2%) were called active. Inconclusive means that the source gave no clear call. Such entries were picked first, then a sample of the others. Calls follow the shape of the dose curve; as a rule, active = well fitted cell-killing curve with a large enough effect; inconclusive = small, poorly fitted or top-dose-only effect, or effect the other way; inactive = flat fitted curve, though single readings scatter. A potency beside an inconclusive call is a rough fit, not a confirmed value.

test: qHTS assay for MDR1-selective chemotherapeutics: Primary screen using the drug-selected MDR subline cells KB-V1; settings: KB-V1 MDR cells viability, CellTiter-Glo, 72 h; activity change, negative = cytotoxicity: at 46.1 µM (top of the series); also: nearly all actives have a fitted effect of over 60% in size
Summary of the method: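 Following 72 h at 37 degrees C with compound, KB-V1 cell viability was read by CellTiter-Glo luminescence, medium being phenol-red-free DMEM plus 10% FBS; concentration-response parameters came from normalized, curve-fitted qHTS data.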
% is scaled to controls: 0 for no effect and ±100 for the full control effect; potency is read from the fitted curve at half-maximal effect.

Question: With CCN(CC)N=Nc1ccc(S(=O)(=O)Nc2nc(C)cc(C)n2)cc1 as the molecule, how does the Potency read?
Answer: Its Potency is inconclusive: 20.6 µM [rising, single point].

Question: For Cc1ccc(-c2nnc(SCCC(=O)Nc3ccccc3)n2C)cc1, which Potency is on record?
Answer: The Potency was “inactive”.

Question: With COc1cc(C(=O)Nc2sc3c(c2C#N)CCN(C(C)=O)C3)cc(OC)c1OC as the molecule, how does the Potency read?
Answer: Its Potency is “inactive”.

Question: Which Potency does the source give for CCc1ccc(NCc2cc3ccc(OC)cc3n(CC(=O)Nc3ccc(F)cc3F)c2=O)cc1 here?
Answer: The Potency was inconclusive: 3.26 µM [cytotoxic, partial curve, poor fit].

Question: For COc1ccc([C@@H]2CC=C(C(=O)O)[C@H](c3cccc(Cl)c3)N2S(=O)(=O)c2ccc(C)cc2)cc1OC, which Potency is on record?
Answer: The Potency was inconclusive: 16.4 µM [rising, partial curve, poor fit].

Question: With CC1=NN(C(N)=S)C(=O)C1N=Nc1ccc(Cl)cc1 (stereo not drawn) as the molecule, how does the Potency read?
Answer: Its Potency is inconclusive: 29.1 µM [cytotoxic, single point].

Question: Which Potency does the source give for Cc1cccc(C)c1NC(=O)C(c1cc2ccccc2o1)N1CCN(C)CC1 (stereo not drawn) here?
Answer: Its Potency is inconclusive: 11.6 µM [cytotoxic, partial curve].

Question: With Cc1cccc(-n2c(SCc3cc(=O)n4ccsc4n3)nc3ccccc3c2=O)c1 as the molecule, how does the Potency read?
Answer: The Potency was inconclusive: 18.4 µM [cytotoxic, single point].

Question: For Cc1ccc(C2=NNC(=Nc3ccc(F)cc3)SC2)cc1, which Potency is on record?
Answer: Its Potency is inconclusive: 23.1 µM [cytotoxic, single point].

Question: With COc1ccc(N(CC(=O)NC2CC2)S(=O)(=O)c2ccccc2)cc1 as the molecule, how does the Potency read?
Answer: Its Potency is “inactive”.

Question: For CCn1cnc2c1c(=O)n(Cc1cccc(Br)c1)c(=O)n2Cc1ccccc1, which Potency is on record?
Answer: Its Potency is active: 18.4 µM.

Question: For COc1ccc(C(=O)NCC(=O)OCC(=O)N2CC(C)OC(C)C2)cc1OC (stereo not drawn), which Potency is on record?
Answer: Its Potency is inconclusive: 14.6 µM [rising, partial curve, poor fit].

Question: Which Potency does the source give for CCC(CC)C(=O)Nc1cccc(S(=O)(=O)c2cccc(NC(=O)C(CC)CC)c2)c1 here?
Answer: Its Potency is “inactive”.

Question: With O=C(O)c1cccc(S(=O)(=O)NNc2ccccc2C(F)(F)F)c1 as the molecule, how does the Potency read?
Answer: Its Potency is “inactive”.

Question: Which Potency does the source give for Cc1ccc2c(c1)c1c3n2CCN(C(=O)Cn2c(-c4ccccc4)noc2=O)C3CCC1 (stereo not drawn) here?
Answer: Its Potency is active: 4.11 µM.

Question: For CCCCSc1nc(-c2ccc(OC)cc2)ccc1C#N, which Potency is on record?
Answer: Its Potency is inconclusive: 29.1 µM [cytotoxic, single point].

Question: With COc1ccc(NC(=S)N2CCN(C/C=C/c3ccccc3)CC2)cc1 as the molecule, how does the Potency read?
Answer: Its Potency is inconclusive: 18.4 µM [cytotoxic, single point].

Question: For CC(C)n1cc(C(=O)c2cc(Br)ccc2O)cc(C#N)c1=O, which Potency is on record?
Answer: Its Potency is inconclusive: 13 µM [cytotoxic, partial curve].

Question: Which Potency does the source give for COC(=O)C1=CN(CCCN2CCCC2=O)C=C(C(=O)OC)C1c1ccccc1C(F)(F)F here?
Answer: Its Potency is “inactive”.

Question: Which Potency does the source give for Cc1cc(=O)oc2cc(NC(=O)c3ccccc3OC(F)F)ccc12 here?
Answer: Its Potency is inconclusive: 18.4 µM [cytotoxic, partial curve, poor fit].

Question: Which activity change, negative = cytotoxicity does the source give for Cc1noc(C)c1S(=O)(=O)Nc1ccc2c(c1)C(=O)N([C@H](C)CO)C[C@H](C)[C@@H](CN(C)S(=O)(=O)c1ccccc1)O2 here?
Answer: The activity change, negative = cytotoxicity was inconclusive: -0.541%.

Question: Which Potency does the source give for COc1ccc2sc(-c3ccc(N(C)C)cc3)c(C#CCO)c2c1 here?
Answer: Its Potency is inconclusive: 18.4 µM [cytotoxic, single point].

Question: Which Potency does the source give for CCOc1ccc(NC(=O)COC(=O)Cc2ccc(S(=O)(=O)N3CCOCC3)s2)cc1 here?
Answer: Its Potency is inconclusive: 14.6 µM [rising, partial curve, poor fit].

Question: For COC(=O)c1ccc(SCC(=O)NCc2ccccc2)c([N+](=O)[O-])c1, which Potency is on record?
Answer: Its Potency is “inactive”.

Question: For CCSc1nnc([C@H](Cc2c[nH]c3ccccc23)NC(=O)OC(C)(C)C)o1, which Potency is on record?
Answer: Its Potency is inconclusive: 20.6 µM [cytotoxic, partial curve, poor fit].

Question: With COc1ccc(NC(=S)NCCCN2CCN(C3CCCCC3)CC2)cc1 as the molecule, how does the Potency read?
Answer: Its Potency is “inactive”.

Question: For CCn1cc(CN2CCC(n3nccc3NC(=O)c3ccccc3C)CC2)cn1, which Potency is on record?
Answer: The Potency was inconclusive: 10.3 µM [rising, single point].

Question: For COc1ccc(OCCN2CCN(C3CC(=O)N(CCC(C)C)C3=O)CC2)cc1 (stereo not drawn), which Potency is on record?
Answer: Its Potency is inconclusive: 18.4 µM [cytotoxic, single point].

Question: For CC(C)C[C@@H]1Cc2[nH][nH]c(=O)c2[C@H](C)O1, which Potency is on record?
Answer: Its Potency is inconclusive: 29.1 µM [rising, single point].

Question: Which Potency does the source give for CCOc1ccc(N(C)C(=O)CS(=O)(=O)c2cccc3nsnc23)cc1 here?
Answer: The Potency was “inactive”.

Question: Which Potency does the source give for O=C1c2ccccc2S(=O)(=O)c2cc(C(=O)N3CCC(C(=O)N4CCCCC4)CC3)ccc21 here?
Answer: Its Potency is inconclusive: 16.4 µM [cytotoxic, partial curve, poor fit].

Question: With CN1CCN(C(=O)/C=C/c2ccc([N+](=O)[O-])cc2)CC1 as the molecule, how does the Potency read?
Answer: Its Potency is “inactive”.

Question: With O=C(Oc1ccc(-c2cnc3ccccc3n2)cc1)c1cccc([N+](=O)[O-])c1 as the molecule, how does the Potency read?
Answer: The Potency was inconclusive: 20.6 µM [cytotoxic, single point].

Question: Which Potency does the source give for COC(=O)C1(Cc2cc(-c3ccc(OC)cc3OC)no2)CCN(C(=O)OC(C)(C)C)CC1 here?
Answer: The Potency was inconclusive: 18.4 µM [cytotoxic, single point].

Question: Which Potency does the source give for CCOc1ccccc1C(=O)NCC(=O)Nc1ncccc1C here?
Answer: The Potency was inconclusive: 16.4 µM [cytotoxic, single point].

Question: For O=C(Nc1ccccn1)c1ccc2c(c1)OCCO2, which Potency is on record?
Answer: Its Potency is inconclusive: 29.1 µM [cytotoxic, single point].

Question: For CCOC(=O)C1CCCN(C(=O)c2cc(OC)ccc2Br)CC1 (stereo not drawn), which Potency is on record?
Answer: The Potency was “inactive”.

Question: For CCc1nnc(NC(=O)c2ccc(S(=O)(=O)N3CCCC(C)C3)cc2)o1 (stereo not drawn), which Potency is on record?
Answer: The Potency was inconclusive: 16.4 µM [cytotoxic, single point].

Question: With Cc1ccccc1CSc1nc2ccccc2c(=O)[nH]1 as the molecule, how does the Potency read?
Answer: Its Potency is inconclusive: 8.2 µM [cytotoxic, partial curve, poor fit].

Question: Which Potency does the source give for COC(=O)c1c(Cl)c2n3ccccc3c(C)c(-c3ccccc3)c-2c1C(=O)OC here?
Answer: The Potency was inconclusive: 13 µM [cytotoxic, partial curve, poor fit].

Question: With Cc1ccc(C(C)(C)NC(=O)C2CCC(=O)N(CCCN3CCOCC3)C2)cc1 (stereo not drawn) as the molecule, how does the Potency read?
Answer: Its Potency is inconclusive: 29.1 µM [rising, single point].

Question: Which Potency does the source give for C=CC(=O)N1C/C(=C/c2ccc(F)cc2)C(=O)/C(=C\c2ccc(F)cc2)C1 here?
Answer: Its Potency is “inactive”.

Question: Which Potency does the source give for CCOC(=O)c1cccc(NC(=O)NCc2cccn2Cc2ccccc2)c1 here?
Answer: The Potency was “inactive”.
